According to article PMC3577733:
Results are given in words; binding and its absence hold for the method and conditions named. Some binding calls cover weakened binding; strength is not graded here. Where a sequence is shown, tags or fusion partners need not be part of it.

By UniProt entry, the sequences of proteins in these tests, tags left out.
UniProt P49597: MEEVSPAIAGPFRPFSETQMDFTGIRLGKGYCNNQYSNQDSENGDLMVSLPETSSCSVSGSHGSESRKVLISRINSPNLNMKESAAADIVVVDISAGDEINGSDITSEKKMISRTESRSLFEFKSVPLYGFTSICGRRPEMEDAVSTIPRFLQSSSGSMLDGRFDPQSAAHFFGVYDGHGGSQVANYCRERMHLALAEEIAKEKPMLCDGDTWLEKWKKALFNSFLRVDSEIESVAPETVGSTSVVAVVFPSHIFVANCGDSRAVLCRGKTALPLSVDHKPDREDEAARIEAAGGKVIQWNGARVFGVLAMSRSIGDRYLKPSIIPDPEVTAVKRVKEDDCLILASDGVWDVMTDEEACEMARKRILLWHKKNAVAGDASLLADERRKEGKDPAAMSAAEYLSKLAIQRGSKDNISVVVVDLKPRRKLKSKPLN

Legend:
[1] = target: T1, AtPYL9 (Arabidopsis PYL9), yeast two-hybrid fusion (Arabidopsis thaliana) (UniProt Q84MC7); test: two-hybrid; yeast AH109, BD (pDEST32) and AD (pDEST22) constructs co-transformed; growth on SD/-T-L-H and SD/-T-L-H-A without ABA
T1 sequence: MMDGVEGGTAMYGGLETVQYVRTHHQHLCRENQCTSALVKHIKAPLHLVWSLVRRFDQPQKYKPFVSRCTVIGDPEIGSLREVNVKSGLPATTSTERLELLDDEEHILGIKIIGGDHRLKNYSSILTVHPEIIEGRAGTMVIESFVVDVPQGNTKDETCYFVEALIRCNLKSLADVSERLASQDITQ

[2] = target: T1, AtPYL9 (Arabidopsis PYL9), yeast two-hybrid fusion (Arabidopsis thaliana); test: two-hybrid; yeast AH109, BD (pDEST32) and AD (pDEST22) constructs co-transformed; growth on SD/-T-L-H-A supplemented with 10 µM ABA

binding [1]: binds
binding [2]: binds
Substance: AtABI1 (Arabidopsis ABI1, AT4G26080), yeast two-hybrid fusion (from UniProt P49597 1-434) (enzyme)
